For two compounds, IC50 results are on record in paper PMC5760633, “Determining direct binders of the Androgen Receptor using a high-throughput Cellular Thermal Shift Assay” (Scientific Reports, 2018).

For this experiment, the system named is AR-driven transcription (ARE-Luciferase). Nature of the experiment: AR-driven transcription ARE Luciferase reporter assay in CWR22Pc-R1-AD1 cells.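 Further: cells stably carrying an ARE-driven firefly luciferase reporter, with luminescence as read-out, tested in phenol red free RPMI containing 10% charcoal stripped FBS.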 In kind it is cell-based. To be noted: Homo sapiens, 24 h. Background: In a reporter assay the amount or activity of a reporter protein is the signal.

Where only a bound is given, the exact number is not on record here.

Take `CCN(c1cc(-c2ccc(CN3CCOCC3)cc2)cc(C(=O)NCc2c(C)cc(C)[nH]c2=O)c1C)C1CCOCC1` [EPZ-6438]: the IC50 (as a rule, the concentration that inhibits the measured activity by half) is over 30000 nM. On to `CNC(=O)c1ccc(N2C(=S)N(c3ccc(C#N)c(C(F)(F)F)c3)C(=O)C2(C)C)cc1F` [Enzalutamide], for which half-maximal inhibition (IC50) was put at 100 nM.
